Experiments:
[1] = general procedure: Fmoc solid-phase peptide synthesis; Rink amide linker resin; H-Gly-sulfamylbutyryl Novasyn TG resin; HBTU/HOBt, DIPEA; manual couplings with PyBOP/HOBt; conditions: late stage modification step
[2] = general procedure: Fmoc solid-phase peptide synthesis; H-Gly-sulfamylbutyryl Novasyn TG resin; HBTU/HOBt, DIPEA; manual couplings with PyBOP/HOBt; conditions: whole synthesis, on resin loading, scale 0.1 mmol

| Substance | step yield [1] [%] | isolated yield [2] |
| --- | --- | --- |
| Cys-MUC1 glycopeptide | 88 |  |
| C (Acm)YAFKYARHANVGRNAFELFLGCOSBn |  | 79% based on resin loading capacity |
| C(Acm)KLFAVWKITYKDTGCOSBn |  | 74% based on resin loading capacity |
